Measured values reported in PubChem BioAssay AID2685 (National Center for Advancing Translational Sciences (NCATS), 2010).
Hit rate of the full screen: of about 320,000 compounds, about 2,100 (0.66%) were called active. The inconclusive results got no clear call from the source; some entries with a clear call stand among them for comparison. The call rests on the fitted dose curve; in most records, active means well fitted inhibition curve with a large enough effect in the signal ratio, with a control signal flat (not every such curve was filed as active); inconclusive means small, poorly fitted or top-dose-only effect, or effect the other way, or a change in a side signal; inactive means flat fitted curve, though single readings scatter; the % refers to the signal ratio. Potencies of inconclusive entries are doubtful fits and often do not repeat.

Experiment: qHTS Assay for Lipid Storage Modulators in Drosophila S3 Cells
Settings: BODIPY lipid droplet fluorescence, 18-24 h, cells fed with added oleic acid; lipid storage change, negative = inhibition: at 46.1 µM (top of the series) unless noted
Outline: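 Drosophila S3 cells got compounds at several concentrations plus oleic acid (400 uM solution). Laser-scanning cytometry with 488 nm excitation read lipid droplets at 500-530 nm and cells at 575-640 nm. Percent activity was relative to 20 uM Triacsin C.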
On the % scale 0 is the no-effect control and ±100 the full control effect; potency means the concentration at half of the fitted maximal effect.

Compound	Potency	lipid storage change, negative = inhibition
Nc1cc(Cl)ccc1N1C(=O)CCC1=O	inconclusive: 0.116 µM [activator, full curve, poor fit]	–
COc1ccc2nc(SCC(=O)NCC3CCCO3)c(C#N)cc2c1 (configuration not stated)	–	inconclusive: -111%
CN1CCN(NC(=O)c2cn(-c3ccccc3)nc2-c2ccc(OC(F)F)cc2)CC1	–	inconclusive: -23%
O=C(CSc1nc2ccccc2[nH]1)N1c2ccccc2Sc2ccccc21	active: 16.4 µM	–
Cc1ccc(NCC(=O)N/N=C\c2ccc[nH]2)cc1	–	inconclusive: 1.41%
COc1ccc(C(CNC(=O)COc2ccccc2OC)N(C)C)cc1OC (configuration not stated)	–	inconclusive: 52.4%
CC1CCN(Cc2nnnn2-c2cccc([N+](=O)[O-])c2)CC1	inconclusive: 14.6 µM [falling, partial curve]	–
Cc1cc(C)c2[nH]c(C(=O)N3CCC(n4nccc4NC(=O)C4CC4)CC3)c(C)c2c1	–	inconclusive: -20%
O=C(Nc1ccccc1C(=O)N1CCCC1)c1cccc(S(=O)(=O)N2CCCCCC2)c1	inconclusive: 2.06 µM [activator, single point]	–
Cc1[nH][nH]c(=O)c1C(c1ccccc1[N+](=O)[O-])C(C#N)C#N (configuration not stated)	–	inconclusive: 2.46%
COc1ccc(/C=N/Nc2ncnc3c2[nH]c2ccccc23)c(OC)c1OC	inconclusive: 10.3 µM [rising, partial curve]	–
COc1ccc(CCCC(=O)N/N=C/c2cccc(OC)c2O)cc1C	inconclusive: 14.6 µM [falling, partial curve, poor fit]	–
O=[N+]([O-])c1cccc(-c2nnc(CNC3CC3)o2)c1	inconclusive: 6.51 µM [activator, single point]	–
COc1cccc(NC(=O)CS(=O)(=O)Cc2nc(-c3ccc(C)cc3)oc2C)c1	–	inconclusive: 81.9%
O=C(CCN1C(=O)c2cccc3cccc(c23)C1=O)NCC1CCCO1 (configuration not stated)	–	inconclusive: 9.13%
CCOc1ccc(CC2CCC(=O)NC2=O)cc1 (configuration not stated)	–	inconclusive: -5.78%
Cc1ccc(N(CC(=O)Nc2ccc3c(c2)OCCO3)S(C)(=O)=O)cc1	inconclusive: 0.517 µM [falling, partial curve, poor fit]	–
CNC(=S)NNC(=O)c1ccccc1Br	–	inconclusive: 14.6%
CCn1nc(NC(=O)c2cccnc2)c2cc3cccc(C)c3nc21	inconclusive: 0.731 µM [activator, full curve, poor fit]	–
O=C(N/N=C/c1cccc2ccccc12)c1cccc(F)c1	active: 11.2 µM	–
Cc1cc(=O)oc(C)c1C(=O)Nc1ccc(F)cc1	–	inconclusive: -14.5%
COc1cccc2c1C(=O)CC2NC(=O)C(F)(F)F (configuration not stated)	–	inconclusive: -13.1%
CCCCNC(=S)Nc1ccc(Cl)cc1	–	inconclusive: 4.18%
N#CC1=C(N)S[C@@H](C(=O)c2ccc(F)cc2)[C@@H]1c1cccs1	–	inconclusive: -12.6%
O=S(=O)(c1ccccc1)c1nc(-c2ccco2)oc1N1CCOCC1	inconclusive: 1.46 µM [activator, full curve, poor fit]	–
NC(=O)C1CC(=O)N(Cc2ccc3c(c2)OCO3)C(=Nc2ccccc2)S1 (configuration not stated)	–	inconclusive: 12.2%

Compound	Potency	lipid storage change, negative = inhibition
O=C(Nc1ccc2c(c1)C(=O)OC2)c1ccc(C(F)(F)F)cc1	inconclusive: 29.1 µM [activator, single point]	–
O=C(NC1CCS(=O)(=O)C1)c1ccc(S(=O)(=O)N2CCCC2)cc1 (configuration not stated)	inconclusive: 0.58 µM [activator, single point]	–
O=P(COCCOCCOCCOCP(=O)(c1ccccc1)c1ccccc1)(c1ccccc1)c1ccccc1	–	inconclusive: 10.2%
O=C(N1CCCC1)C12CC3CCC(CC(C3)C1)C2	–	inactive
COc1cc(CN(C(=O)c2cccs2)C2CCS(=O)(=O)C2)cc(OC)c1OC (configuration not stated)	inconclusive: 1.16 µM [falling, full curve]	–
COc1cc(OC)c(C2=NOC(C(=O)Nc3c(C)nn(CC(=O)N4CCCC4)c3C)C2)cc1Cl (configuration not stated)	–	inconclusive: 8.92%
NC1=NC(=O)CC(C(=O)Nc2cccc3ccccc23)S1 (configuration not stated)	inconclusive: 1.84 µM [falling, partial curve, poor fit]	–
Clc1ccccc1-c1nnc2sc(-c3cccs3)nn12	inconclusive: 4.61 µM [activator, partial curve]	–
Cc1cccc(C)c1NC(=O)CCCSc1nnc(-c2ccc(F)cc2)n1-c1ccccc1	–	inconclusive: 12.9%
Cc1occc1C(=O)NNC(=O)Nc1ccc(F)cc1F	–	inconclusive: 6.37%
O=C(Nc1ccccc1)c1ccc(CSc2ccccn2)cc1	–	inconclusive: 10.1%
O=C(c1cccc(N2C(=O)C3C4C=CC(C4)C3C2=O)c1)N1CCN(c2ccccc2)CC1 (configuration not stated)	–	inconclusive: 4.4%
CN(c1ccccc1)S(=O)(=O)c1ccc(C(=O)Nc2nccs2)cc1	–	inconclusive: -23.2%
CCCc1cc2c(=O)c(-c3cscn3)c(C(=O)OCC)oc2cc1O	inconclusive: 20.6 µM [activator, single point]	–
Cc1cc(C(=O)CN2C(=O)c3ccccc3S2(=O)=O)c(C)n1-c1ccccc1	inconclusive: 2.06 µM [activator, partial curve]	–
CCN(CC(=O)Nc1ccc(NC(C)=O)cc1)C(=O)c1cccc2ccccc12	–	inconclusive: 16.3%
COc1ccc(NC(=O)C2OC3OC(C)(C)OC3C3OC(C)(C)OC23)cc1 (configuration not stated)	–	inconclusive: -4.37%
O=C(CCCSc1nc2ccccc2s1)Nc1nccs1	–	inconclusive: -20.7%
CCOC(=O)N1CCN(C(=S)NC2CCCC2)CC1	–	inconclusive: -7.03%
Cc1ccccc1-c1nnc(SCC(=O)c2c(N)n(C3CC3)c(=O)[nH]c2=O)o1	–	inconclusive: 16.4%
NS(=O)(=O)c1cccc(NC(=O)Nc2ccc(Cl)cc2)c1	–	inconclusive: -13.7%
Cc1ccc(-c2ocnc2C(=O)N2CCN(C(=O)c3cccs3)CC2)cc1	inconclusive: 4.11 µM [activator, partial curve]	–
O=C(CCN1CCCCC1=O)NC1CCCN(Cc2ccc(Cl)cc2)C1 (configuration not stated)	inconclusive: 29.1 µM [falling, single point]	–
COc1ccc(C(=O)N/N=C(/C)c2cccc(NC(=O)c3ccncc3)c2)cc1OC	inconclusive: 29.1 µM [activator, single point]	–
COc1ccc(-c2nc3ccc(C)cc3c(=O)o2)cc1OC	inconclusive: 29.1 µM [falling, single point]	–
Cc1ccc(NC(=O)c2ccc(OC(=O)C(C)Oc3ccc(Cl)cc3C)cc2)cc1 (configuration not stated)	–	inconclusive: -22.6%

Record cards, as listed above.
NS(=O)(=O)c1cccc(NC(=O)Nc2ccc(Cl)cc2)c1 in the list: lipid storage change, negative = inhibition: inconclusive: -13.7%
Clc1ccccc1-c1nnc2sc(-c3cccs3)nn12 in the list: Potency: inconclusive: 4.61 µM [activator, partial curve]
Cc1cc(C(=O)CN2C(=O)c3ccccc3S2(=O)=O)c(C)n1-c1ccccc1 in the list: Potency: inconclusive: 2.06 µM [activator, partial curve]
CCOC(=O)N1CCN(C(=S)NC2CCCC2)CC1 in the list: lipid storage change, negative = inhibition: inconclusive: -7.03%

Next part:

Compound	Potency	lipid storage change, negative = inhibition
CCCN1CCN(C(=O)c2ccc(F)c(S(=O)(=O)N3CCOCC3)c2)CC1	–	inconclusive: 42%
Cc1cccc(Nc2ccc(S(=O)(=O)N3CCOCC3)cc2[N+](=O)[O-])c1	–	inconclusive: -49.3%
CCN1CCCC1CNS(=O)(=O)c1ccc(Cl)c(C(F)(F)F)c1 (configuration not stated)	–	inconclusive: 11.3%
O=C1C2C3C=CC(C3)C2C(=O)N1CNc1ccc(O)cc1 (configuration not stated)	inconclusive: 1.03 µM [falling, full curve]	–
CNc1nc(C)c(C(=O)OCC(=O)OC)s1	–	inconclusive: 11.7%
CCOC(=O)C1=C(C)N[C@@]2(O)c3ccccc3C(=O)[C@@]12O	inconclusive: 29.1 µM [falling, single point]	–
Cc1nc2c3cc(F)ccc3n(Cc3ccc(F)cc3)c2s1	–	inconclusive: 22.7%
Cc1c(NC(=O)/C(=C/c2cccs2)c2cccs2)c(=O)n(-c2ccccc2)n1C	–	inconclusive: 19%
COCCn1c(=NC(=O)/C=C/c2cccs2)sc2cc(NC(C)=O)ccc21	–	inconclusive: -19.2%
CC(=O)Oc1ccc(C(=O)O)cc1OC(C)=O	–	inconclusive: -0.492%
CC(=O)Nc1ccc2nc(NS(=O)(=O)c3ccc(C)cc3)sc2c1	–	inactive
C=CCn1c(-c2ccccc2OC)n[nH]c1=S	–	inconclusive: 17.2%
O=C(CC1NCCNC1=O)Nc1ccc2c(c1)OCCO2 (configuration not stated)	inconclusive: 29.1 µM [cytotoxic, partial curve]	–
N#Cc1ccc2c(c1)C[C@]1(c3ccsc3)Oc3c(c(=O)oc4ccccc34)C2O1	–	inconclusive: 32.8% [at 9.22 µM]
O=C(CSc1nc2c(c(=O)[nH]1)CCC2)Nc1cccc(Cl)c1	–	inconclusive: 12.4%
CC(C)(C)c1ccc(OCC(=O)NNC(=S)NC(=O)c2ccco2)c(Br)c1	–	inconclusive: 11.9%
Cn1c(COc2ccccc2)nnc1SCC(=O)Nc1ccc(N2CCOCC2)c(Cl)c1	inconclusive: 5.17 µM [cytotoxic, partial curve, poor fit]	–
CCC(Oc1ccccc1)C(=O)Nc1cc(Cl)ccc1-n1cncn1 (configuration not stated)	–	inconclusive: -75.4%
CCc1ccc(NC(=O)c2sc3nc(C)nc(N4CCN(c5ccccn5)CC4)c3c2C)cc1	–	inconclusive: -100%
CCCNC(=O)c1ccccc1NC(=O)c1ccccc1SC	–	inconclusive: 3.03%
C/C(=N\Nc1ccc(C(F)(F)F)cn1)c1ccncc1	–	inconclusive: 6.38%
CN(C(=O)COC(=O)c1ccccc1NCc1ccco1)c1c(N)n(Cc2ccccc2)c(=O)[nH]c1=O	–	inconclusive
CS(=O)(=O)N(CC(=O)NCC1CCCO1)c1cc(Cl)ccc1Cl (configuration not stated)	inconclusive: 3.26 µM [falling, full curve]	–
COC(=O)c1ccc(CO/N=C/c2ccccc2OC)cc1	–	inconclusive: 31.1%
CC(=O)c1cccc(NC(=S)N2CCC(Cc3ccccc3)CC2)c1	–	inconclusive: 17.6%
